Data as given in PubChem BioAssay AID1224830 (NIAID, 2016).

Aim: 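Genes whose knock-down alters the TNF-alpha reporter response to LPS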 (primary screen)
System: human THP-1 monocytic leukaemia cells, TNF dual-luciferase reporter clone, PMA-differentiated to macrophage-like cells
Reagent: siRNA pool against human genes, 50 nM
Duration: LPS for 4 h, given about 3 days after siRNA transfection
Challenge: bacterial LPS (TLR4 ligand), 10 ng/ml
Read-out: 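TNF firefly reporter luminescence divided by renilla, normalised to the plate median, then turned into a robust z-score for each replicate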
Direction: TNF reporter robust z-score: higher = stronger TNF reporter response to LPS
Active means: 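Each well counts as active if its z-score is over 2.8 or under -1.5; controls are left without a call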
This is one part, drawn at random, of about 18,000 deposited reagents. Of all reagents, about 2,900 (16%) are marked active. 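Calls are made per well; low scores hint the gene aids the LPS response, high scores that it dampens it.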 A number with no mark means an inactive call. Repeated entries: four replicate wells of each siRNA pool.

Depletion of HADHA resulted in: TNF reporter robust z-score -0.45.
Against HADHA, the values are TNF reporter robust z-score -0.89.
HADHA showed TNF reporter robust z-score -0.81.
HADHA scored TNF reporter robust z-score -1.
With knock-down of HEBP1 (heme binding protein 1), the record shows TNF reporter robust z-score 0.67.
HEBP1 (heme binding protein 1) scored TNF reporter robust z-score 0.71.
Silencing of HEBP1 (heme binding protein 1) came out at: TNF reporter robust z-score 1.15.
After knock-down of HEBP1 (heme binding protein 1) the results were TNF reporter robust z-score 1.19.

The listing continues:
Against FGF16 (fibroblast growth factor 16) the deposit lists TNF reporter robust z-score -0.42.
Against FGF16 (fibroblast growth factor 16), the entry reads TNF reporter robust z-score 2.2.
Silencing of FGF16 (fibroblast growth factor 16) resulted in: TNF reporter robust z-score 0.15.
For FGF16 (fibroblast growth factor 16) the deposit lists TNF reporter robust z-score 0.93.
HNF1A (HNF1 homeobox A) showed TNF reporter robust z-score 0.11.
HNF1A (HNF1 homeobox A) gave TNF reporter robust z-score 0.6.
For HNF1A (HNF1 homeobox A) the deposit lists TNF reporter robust z-score 0.12.
With knock-down of HNF1A (HNF1 homeobox A), the screen gave TNF reporter robust z-score 0.76.
USP18 (ubiquitin specific peptidase 18) scored TNF reporter robust z-score -0.63.
After knock-down of USP18 (ubiquitin specific peptidase 18) the results were TNF reporter robust z-score -0.81.
Against USP18 (ubiquitin specific peptidase 18), the entry reads TNF reporter robust z-score -0.36.
After knock-down of USP18 (ubiquitin specific peptidase 18) the results were TNF reporter robust z-score 0.44.
